Source: PubChem BioAssay AID743255 (National Center for Advancing Translational Sciences (NCATS), 2014)
In all, about 390,000 compounds went through this assay and about 910 (0.23%) were called active. This list was built around the results that the source calls inconclusive (neither active nor inactive); the mix of calls is not that of the screen. The call rests on the fitted dose curve; in most records, active means well fitted inhibition curve with a large enough effect; inconclusive means small, poorly fitted or top-dose-only effect; inactive means no such curve, though single readings can be large or run the other way. A potency beside an inconclusive call is a rough fit, not a confirmed value.

Chains of the proteins cited; added tags and fusions are not shown. Lines headed by an entry give the natural chain unless they say otherwise; changes in a name come on top.
UniProt O94782: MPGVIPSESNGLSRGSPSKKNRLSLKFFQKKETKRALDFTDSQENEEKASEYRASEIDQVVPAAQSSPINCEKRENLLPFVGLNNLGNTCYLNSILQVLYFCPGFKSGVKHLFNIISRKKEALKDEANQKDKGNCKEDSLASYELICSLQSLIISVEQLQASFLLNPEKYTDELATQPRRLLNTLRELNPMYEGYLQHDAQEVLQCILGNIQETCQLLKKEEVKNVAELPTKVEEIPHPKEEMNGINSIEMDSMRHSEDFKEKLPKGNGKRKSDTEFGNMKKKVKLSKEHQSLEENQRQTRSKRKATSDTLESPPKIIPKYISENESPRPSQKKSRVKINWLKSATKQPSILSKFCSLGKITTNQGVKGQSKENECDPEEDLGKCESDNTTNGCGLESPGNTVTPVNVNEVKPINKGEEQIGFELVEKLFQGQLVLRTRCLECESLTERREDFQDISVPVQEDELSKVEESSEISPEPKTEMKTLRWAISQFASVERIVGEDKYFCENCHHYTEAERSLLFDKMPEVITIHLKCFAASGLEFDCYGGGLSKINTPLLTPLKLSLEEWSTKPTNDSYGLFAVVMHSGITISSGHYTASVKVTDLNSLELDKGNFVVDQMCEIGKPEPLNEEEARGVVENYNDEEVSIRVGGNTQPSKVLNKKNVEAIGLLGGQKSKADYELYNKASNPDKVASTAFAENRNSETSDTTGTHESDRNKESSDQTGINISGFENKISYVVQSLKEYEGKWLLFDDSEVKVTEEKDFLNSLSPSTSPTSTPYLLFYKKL

What follows are compounds tested against Ubiquitin carboxyl-terminal hydrolase 1 (Homo sapiens) (UniProt O94782) (assay: Inhibitors of USP1/UAF1: Primary Screen). Details: recombinant USP1/UAF1, Ub-Rhodamine cleavage fluorescence; series mostly up to 57.1 µM.
Summary of the method: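 Step one: compound is pinned into 1nM USP1/UAF1 in HEPES pH 7.8 buffer with TCEP. Step two: 15 min room-temperature incubation. Step three: Ub-Rho (150nM final) starts cleavage, tracked by fluorescence over six one-minute reads.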
Further: nearly all actives have a fitted effect of over 60% in size.
Potency means the concentration at half of the fitted maximal effect.

Structure (SMILES) | Potency
O=C(c1cc2cc(F)ccc2[nH]1)N1CCCC(Nc2ccc(F)cc2)C1 (stereo not given) | inactive
CC(Sc1nncn1C)C(=O)NCCC1=CCCCC1 (stereo not given) | inconclusive: 20 µM [inhibitor, partial curve, poor fit]
O=C1NN(c2ccccc2)C(=O)/C1=C\c1ccccc1OCC(=O)N1CCOCC1 | inactive
CCCCC(=O)N1CCN(c2nc(-c3ccc(F)cc3)cs2)CC1 | inconclusive: 2.51 µM [inhibitor, full curve]
OCCCNc1nc(-c2ccc(Cl)cc2)nc2ccccc12 | inactive
COc1ccccc1N1CCN(C(=O)c2cc3c(-c4ccc(Cl)cc4)nn(C)c3s2)CC1 | inconclusive: 5.62 µM [inhibitor, full curve, poor fit]
O=C(O)COc1ccc2c(c1)O/C(=C\c1ccco1)C2=O | inactive
CC(C)c1ccc(-c2cc(C(=O)N3N=C(C(F)F)CC3(O)C(F)F)c3ccccc3n2)cc1 (stereo not given) | inconclusive: 44.7 µM [inhibitor, partial curve, poor fit]
Cc1ccc(CCNC(=O)c2cn(C)c3ccc(S(=O)(=O)N4CCCCC4)cc3c2=O)cc1 | inactive
C=CCSc1nc(-c2ccc(OC)cc2)c(C#N)c(=O)n1CC=C | inconclusive: 31.6 µM [inhibitor, partial curve]
Cc1nc(N2CCN(c3ccccn3)CC2)c2c(C)c(C(=O)N3CCN(c4cccc(Cl)c4)CC3)sc2n1 | inconclusive: 4.47 µM [inhibitor, single point]
O=S1(=O)CC(O)C(N2CCC(c3ccccc3)CC2)C1 (stereo not given) | inconclusive: 28.2 µM [inhibitor, single point]
CSCC[C@H](NC(=O)c1ccc2c(c1)OCO2)c1nnc2ccccn12 | inactive
Cc1cc(C)cc(-n2c(SCC(N)=O)nc3c(oc4ccccc43)c2=O)c1 | inactive
Cc1ccc(S(=O)(=O)NNC(=O)C2CCN(S(=O)(=O)c3ccc(C)cc3)CC2)cc1 | inactive
FC(F)Sc1ccc(NC(=S)NCc2ccccc2)cc1 | inconclusive: 15.8 µM [inhibitor, partial curve, poor fit]
O=C(Nc1ccccc1)C1=C[C@H](c2csc3ccccc23)C[C@H](OCc2ccc(CO)cc2)O1 | inconclusive: 39.8 µM [inhibitor, partial curve]
CC(=O)Nc1cccc(Oc2nc(-c3ccccn3)nc3ccccc23)c1 | inconclusive: 8.91 µM [inhibitor, partial curve, poor fit]
Cc1cc(N/N=C/c2ccc(Cl)cc2)nc(NCc2ccccc2)n1 | inactive
COc1ccc(Cn2c(SCc3ccc(C(=O)NCCc4ccccc4)cc3)nc3cccnc32)cc1 | inconclusive: 50.1 µM [inhibitor, partial curve, poor fit]

Look-ups from the results shown.
`C=CCSc1nc(-c2ccc(OC)cc2)c(C#N)c(=O)n1CC=C` – Potency: inconclusive: 31.6 µM [inhibitor, partial curve]
`Cc1cc(N/N=C/c2ccc(Cl)cc2)nc(NCc2ccccc2)n1` – Potency: inactive
